Results taken from paper PMC5004903.

By UniProt entry, the sequences of proteins in these tests, tags left out. Where a name states a change or a piece, a line headed by the entry shows the natural chain unless it says otherwise.
UniProt Q9Z248: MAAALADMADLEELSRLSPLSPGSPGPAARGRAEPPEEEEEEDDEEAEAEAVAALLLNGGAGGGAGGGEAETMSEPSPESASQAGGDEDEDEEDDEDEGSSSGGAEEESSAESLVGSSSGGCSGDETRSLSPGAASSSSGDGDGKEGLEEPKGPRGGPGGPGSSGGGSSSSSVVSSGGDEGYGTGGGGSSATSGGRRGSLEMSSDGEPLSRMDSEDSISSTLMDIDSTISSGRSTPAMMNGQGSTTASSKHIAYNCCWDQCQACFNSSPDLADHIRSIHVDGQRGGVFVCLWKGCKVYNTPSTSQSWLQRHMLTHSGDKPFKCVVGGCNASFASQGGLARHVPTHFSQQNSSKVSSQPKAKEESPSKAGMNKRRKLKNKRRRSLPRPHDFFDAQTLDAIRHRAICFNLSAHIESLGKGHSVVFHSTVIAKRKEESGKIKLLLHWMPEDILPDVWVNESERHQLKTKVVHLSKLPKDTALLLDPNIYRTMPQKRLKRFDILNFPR
UniProt Q02395: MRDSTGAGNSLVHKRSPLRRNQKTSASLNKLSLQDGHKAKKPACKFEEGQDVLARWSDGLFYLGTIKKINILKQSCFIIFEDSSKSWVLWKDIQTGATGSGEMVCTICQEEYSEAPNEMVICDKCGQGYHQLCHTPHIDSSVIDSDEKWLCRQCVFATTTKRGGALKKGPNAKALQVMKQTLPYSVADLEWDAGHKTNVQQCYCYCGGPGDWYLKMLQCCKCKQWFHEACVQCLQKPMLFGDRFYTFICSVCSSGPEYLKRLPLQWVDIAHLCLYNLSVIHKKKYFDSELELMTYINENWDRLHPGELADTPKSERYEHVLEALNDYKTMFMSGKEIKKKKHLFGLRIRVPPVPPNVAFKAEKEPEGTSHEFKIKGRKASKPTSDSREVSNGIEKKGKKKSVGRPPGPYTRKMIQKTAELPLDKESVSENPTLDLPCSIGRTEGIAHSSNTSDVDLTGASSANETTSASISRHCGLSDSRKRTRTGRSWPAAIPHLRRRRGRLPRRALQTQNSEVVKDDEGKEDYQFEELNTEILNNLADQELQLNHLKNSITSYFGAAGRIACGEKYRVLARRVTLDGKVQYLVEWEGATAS

Target: Flag-2xStrepII-tagged (FS2) AEBP2 (mouse) (UniProt Q9Z248)
Assay: co-IP; mESC lines stably expressing FS2-AEBP2 or FS2-C17ORF96 homologue; immunoprecipitation with the Flag-2xStrepII (FS2) antibody or the JARID2 antibody, immunoblot

## PCL2 (MTF2), endogenous (from UniProt Q02395 1-593)
  binding: no binding

Results are given in words; binding and its absence hold for the method and conditions named. In cells and extracts the contact can be indirect.
